Assay results: PMC9834230, “The HAPSTR2 retrogene buffers stress signaling and resilience in mammals” (Nature Communications, 2023)

Molecular target: T1, recombinant maltose-binding protein (MBP)-tagged HAPSTR2 (human)
T1 sequence: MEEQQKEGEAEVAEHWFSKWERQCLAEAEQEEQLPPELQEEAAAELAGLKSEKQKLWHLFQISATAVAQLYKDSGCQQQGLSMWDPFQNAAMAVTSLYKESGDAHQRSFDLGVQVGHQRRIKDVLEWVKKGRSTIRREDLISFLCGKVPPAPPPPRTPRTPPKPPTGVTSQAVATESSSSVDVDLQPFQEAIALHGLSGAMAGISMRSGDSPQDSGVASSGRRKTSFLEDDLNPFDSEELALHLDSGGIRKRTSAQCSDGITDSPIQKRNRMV
Experiment: pull-down; recombinant MBP-tagged bait on amylose resin; 2.5 mg protein of 293T whole cell lysate, overnight at 4 °C; wash buffer 10 mM Tris-HCl, 200 mM NaCl, 1 mM EDTA, 1 mM DTT, pH 7.5; eluted with 10 mM maltose; immunoblot; only the target purified

binding: binds
Substance: endogenous HAPSTR1, short isoform (human (endogenous in 293T))

These are yes or no findings as the source states them, for the method shown. In cells and extracts the contact can be indirect. Binding can be weak; no strength is given. Sequences can lack the tags named with a protein.
